Results reported in patent publication US20260055117A1, “SUBSTITUTED PYRIDONE GPR84 ANTAGONISTS AND USES THEREOF” (Liminal BioSciences Limited, priority 2022, published 2026).
The match of structure and compound is tentative.

By UniProt entry, the sequences of proteins in these tests, tags left out.
UniProt Q9NQS5, whole entry: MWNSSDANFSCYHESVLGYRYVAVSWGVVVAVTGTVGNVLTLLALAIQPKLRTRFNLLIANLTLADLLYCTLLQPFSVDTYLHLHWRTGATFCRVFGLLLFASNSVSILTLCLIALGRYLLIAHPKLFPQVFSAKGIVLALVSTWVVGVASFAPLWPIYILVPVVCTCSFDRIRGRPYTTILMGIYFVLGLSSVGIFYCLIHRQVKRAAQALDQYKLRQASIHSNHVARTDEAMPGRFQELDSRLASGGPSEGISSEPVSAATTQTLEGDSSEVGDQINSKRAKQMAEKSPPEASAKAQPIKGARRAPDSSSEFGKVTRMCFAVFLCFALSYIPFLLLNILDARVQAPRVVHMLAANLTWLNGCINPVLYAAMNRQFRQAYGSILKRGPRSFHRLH

Molecular target: human GPR84 receptor (Homo sapiens, UniProt Q9NQS5)
Test: Gαi biosensor BRET assay (GPR84 antagonism vs agonist ZQ-16)
Settings: HEK293 cells, 200 nmol/L agonist ZQ-16; for IC50: read-out: BRET Assay (IC50) Activity, Gαi biosensor BRET assay

Row | Structure (SMILES) | IC50 [nM] | BRET Assay (% Inhibition) Activity (tested at 10 μM (concentration code D)) | BRET Assay (% Inhibition) Activity (tested at 2 μM (concentration code A))
1 | Cc1cc(OCC(=O)N2CCC[C@H]2C(=O)O)cc(=O)n1[C@H](C)c1ccc(C#CC2CC2)cc1 | 300 to 1000 | **** (percent inhibition of >75%) | 
2 | Cc1cc(OCC(=O)N2CCC[C@@H]2CO)cc(=O)n1[C@H](C)c1ccc(C#CC2CC2)cc1 | < 300 |  | **** (percent inhibition of >75%)
